The text below walks through data of patent publication US20160367587.

In the data set the test system is DNase. Put plainly: enzyme reaction in vitro. The following applies: HES loop diminishes nuclease sensitivity; real-time digestion at 37 C; no value given; purified native protein; single-stranded DNA.

For at least one entry, the source does not settle the construct or the ends of the probe. Weaker means in comparison with the reference protein, sequence or condition of that experiment.

In the case of “CCCGGCGATATCATCATCCATAAC [HES beta-actin oligonucleotide]”, the “activity on this sequence” value was “less active”.
